Results as given in US5885811A, “Leader sequence inducing a post-translational modification of polypeptides in bacteria gene therefor and subtilin variant of enhanced stability and activity” (University of Maryland, priority 1995, dated 1999).
Part of at least one peptide drawing is inferred or uncertain, most often the ends.

Legend:
Bacillus cereus T spores = experiment: Spore outgrowth liquid assay (amount required to inhibit spore outgrowth during 3 hour assay); format: cell-based
Procedure: (§1) Measurement of biological stability of subtilin. Biological activity against Bacillus cereus spores was measured by a liquid assay in which various concentrations of subtilin were added to a suspension of Bacillus cereus T spores in 15 ml polypropylene tubes, and inhibitory effects were evaluated by phase-contrast microscopy as described previously (Morris et al, J. Biol. Chem., 259, 13590-13594 (1984) and Appl. Environ. Microbiol., 42, 958-962 (1981)). The amount of subtilin required to inhibit spore outgrowth during the 3 hour assay period was used as a measure of antimicrobial activity. Relative amounts of subtilin were estimated from the area of the subtilin peak (measured at 254 nm) that eluted from the C-18 analytical HPLC column during purification. The amounts were converted to molar quantities of subtilin by comparing the peak area of subtilin with that of a known molar quantity of a nisin standard (21). For this purpose, the extinction coefficients of nisin and subtilin at 254 nm were assumed to be the same, in that absorbance at this wavelength is mainly due to the same three dehydro residues present in both peptides. The biological activity against Bacillus cereus spores of the E4I-subtilinmutant was determined in the same way as for natural subtilin.
E4I-subtilin has enhanced specific activity. The specific activity of E4I-subtilin was measured using the spore outgrowth assay and compared to natural subtilin. […] It is worth noting that natural subtilin, and especially the mutant subtilin, are effective at molar concentrations that are appreciably lower (an order of magnitude) than other common antibiotics such as ampicillin or chloramphenicol.

Bacillus cereus spores = experiment: Biological stability: activity against Bacillus cereus spores over time of incubation; format: cell-based; conditions: 50 mM NaPi pH 6.8, room temperature, compared with DHA5 disappearance
Procedure: as §1
Chemical and biological stability of natural subtilin. The natural producer of subtilin is B. subtilis ATCC 6633. […]

[1] = format: physicochemical; conditions: aqueous solution (D2O) pH 6.8, room temperature, NMR at 295K
Procedure: Measurement of chemical stability of DHA5. The dehydro residues of nisin and subtilin have vinyl protons that give well-separated resonances in the proton NMR spectrum, Liu and Hansen, Appl. Environ. Microbiol., 56, p. 251 (1990). The areas of the vinyl proton peaks in the NMR spectrum were measured, and chemical modification of DHA5 over time was taken as the decrease in peak area of the DHA5 vinyl protons in subtilin and in E4I-subtilin as compared to zero time. Proton NMR spectra were obtained using a Bruker AMX-500 NMR spectrometer. The spectra were obtained at a constant temperature of 295K, using selective solvent suppression.
Chemical and biological stability of natural subtilin. The natural producer of subtilin is B. subtilis ATCC 6633. […] These dissolved samples were incubated at room temperature, and from time to time, the NMR spectrum of the one sample and the biological activity of the other sample against Bacillus cereus spores were determined. […]
E4I-subtilin has enhanced chemical and biological stability. The central design strategy in the construction of a stable mutant of subtilin was based on the idea that the chemical and biological stabilities of subtilin are determined by the chemical reactivity of DHA5; and that DHA5 in natural subtilin is unstable because the Glu4 carboxyl participates in its chemical modification (FIG. 7). […]

[2] = Bacillus cereus T spores, 3 hour assay

SMILES: C=C(NC(=O)[C@@H](NC(=O)[C@H](CCCCN)NC(=O)[C@@H]1CSC(C)[C@H]2NC(=O)[C@H](CC(C)C)NC(=O)[C@H](NC(=O)[C@H](CCC(N)=O)NC(=O)[C@H](CC(C)C)NC(=O)[C@H](Cc3ccccc3)NC(=O)[C@@H]3CSC(C)[C@@H](NC(=O)[C@@H](NC(=O)[C@@H]4CSC(C)[C@@H](NC(=O)[C@@H]5CSC[C@@H](NC(=O)[C@H](CCCCN)NC(=O)[C@@H](N)Cc6c[nH]c7ccccc67)C(=O)N[C@@H]([C@@H](C)CC)C(=O)N[C@@H](C)C(=O)N[C@@H](CC(C)C)C(=O)N5)C(=O)N5CCC[C@H]5C(=O)NCC(=O)N4)C(C)C)C(=O)NCC(=O)N[C@@H](C)C(=O)N[C@@H](CC(C)C)C(=O)N[C@@H](CCC(N)=O)C(=O)NC(=CC)C(=O)N3)C(C)SC[C@H](NC2=O)C(=O)N[C@@H](CC(N)=O)C(=O)N1)[C@@H](C)CC)C(=O)N[C@@H](CCCCN)C(=O)O (stereo partly drawn) [E4I/DHA5A subtilin]
- concentration showing inhibition of spore outgrowth (Bacillus cereus T spores; [2]): > 50 μg per ml

SMILES: C=C(NC(=O)[C@@H](NC(=O)[C@H](CCCCN)NC(=O)[C@@H]1CSC(C)[C@H]2NC(=O)[C@H](CC(C)C)NC(=O)[C@H](NC(=O)[C@H](CCC(N)=O)NC(=O)[C@H](CC(C)C)NC(=O)[C@H](Cc3ccccc3)NC(=O)[C@@H]3CSC(C)[C@@H](NC(=O)[C@@H](NC(=O)[C@@H]4CSC(C)[C@@H](NC(=O)[C@@H]5CSC[C@@H](NC(=O)[C@H](CCCCN)NC(=O)[C@@H](N)Cc6c[nH]c7ccccc67)C(=O)N[C@@H]([C@@H](C)CC)C(=O)NC(=C)C(=O)N[C@@H](CC(C)C)C(=O)N5)C(=O)N5CCC[C@H]5C(=O)NCC(=O)N4)C(C)C)C(=O)NCC(=O)N[C@@H](C)C(=O)N[C@@H](CC(C)C)C(=O)N[C@@H](CCC(N)=O)C(=O)NC(=CC)C(=O)N3)C(C)SC[C@H](NC2=O)C(=O)N[C@@H](CC(N)=O)C(=O)N1)[C@@H](C)CC)C(=O)N[C@@H](CCCCN)C(=O)O (stereo partly drawn) [E4I-subtilin]
- concentration showing inhibition of spore outgrowth (molar) (Bacillus cereus T spores; [2]): ~80 nM
- specific activity relative to natural subtilin (Bacillus cereus T spores; spore outgrowth assay): 3-4 fold
- loss of biological activity against Bacillus cereus spores during incubation (Bacillus cereus spores): dropped by a similar amount
- loss of biological activity against Bacillus cereus spores during incubation (Bacillus cereus spores; listed as mutant subtilin): dropped very little during the 48-day incubation period
- t1/2 of chemical modification (disappearance) of DHA5, first-order [1]: 48 days
